The target of this experiment is T1, full length TRIM14 ORF tagged at the C-terminus with 3xFLAG (human) (UniProt Q14142).
T1 sequence: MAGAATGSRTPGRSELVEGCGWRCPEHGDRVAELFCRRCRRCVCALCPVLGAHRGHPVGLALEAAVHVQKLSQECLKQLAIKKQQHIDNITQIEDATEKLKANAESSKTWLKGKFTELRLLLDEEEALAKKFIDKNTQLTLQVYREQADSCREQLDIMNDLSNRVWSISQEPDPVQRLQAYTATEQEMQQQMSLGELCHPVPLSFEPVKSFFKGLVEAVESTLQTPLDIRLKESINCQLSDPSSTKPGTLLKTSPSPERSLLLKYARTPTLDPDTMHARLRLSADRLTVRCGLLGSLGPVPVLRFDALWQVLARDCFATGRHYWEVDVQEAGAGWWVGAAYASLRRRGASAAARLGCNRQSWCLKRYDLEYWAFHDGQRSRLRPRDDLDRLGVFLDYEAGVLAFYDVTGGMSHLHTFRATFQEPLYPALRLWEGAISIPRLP
Put plainly: affinity purification with mass spectrometry; anti-FLAG affinity gel IP of C-terminally 3xFLAG-tagged TRIM14 from HEK293T lysate 48 h after transfection, overnight at 4 °C; eluted with 0.15% TFA, trypsin, LC-MS/MS; proteins also found with empty FLAG vector excluded; hits seen in at least 2 of 3 biological experiments.

These results are taken from PMC5216374.

No constants are given. Whether binding was seen depends on the method and setting. In cells and extracts the contact can be indirect. Here binding means that the protein was enriched with, or labelled near, the bait; the list need not be complete. Tags and fused reporters may be left off the sequences shown.

B1: Pyridoxal-dependent decarboxylase domain-containing protein 1 (protein, UniProt Q6P996 1-788)
chain: MDASLEKIADPTLAEMGKNLKEAVKMLEDSQRRTEEENGKKLISGDIPGPLQGSGQDMVSILQLVQNLMHGDEDEEPQSPRIQNIGEQGHMALLGHSLGAYISTLDKEKLRKLTTRILSDTTLWLCRIFRYENGCAYFHEEEREGLAKICRLAIHSRYEDFVVDGFNVLYNKKPVIYLSAAARPGLGQYLCNQLGLPFPCLCRVPCNTVFGSQHQMDVAFLEKLIKDDIERGRLPLLLVANAGTAAVGHTDKIGRLKELCEQYGIWLHVEGVNLATLALGYVSSSVLAAAKCDSMTMTPGPWLGLPAVPAVTLYKHDDPALTLVAGLTSNKPTDKLRALPLWLSLQYLGLDGFVERIKHACQLSQRLQESLKKVNYIKILVEDELSSPVVVFRFFQELPGSDPVFKAVPVPNMTPSGVGRERHSCDALNRWLGEQLKQLVPASGLTVMDLEAEGTCLRFSPLMTAAVLGTRGEDVDQLVACIESKLPVLCCTLQLREEFKQEVEATAGLLYVDDPNWSGIGVVRYEHANDDKSSLKSDPEGENIHAGLLKKLNELESDLTFKIGPEYKSMKSCLYVGMASDNVDAAELVETIAATAREIEENSRLLENMTEVVRKGIQEAQVELQKASEERLLEEGVLRQIPVVGSVLNWFSPVQALQKGRTFNLTAGSLESTEPIYVYKAQGAGVTLPPTPSGSRTKQRLPGQKPFKRSLRGSDALSETSSVSHIEDLEKVERLSSGPEQITLEASSTEGHPGAPSPQHTDQTEAFQKGVPHPEDDHSQVEGPESLR
On to B1, for which the binding entry was “binds”.

B2: Serine/threonine-protein phosphatase 6 regulatory subunit 3 (protein, UniProt Q5H9R7 1-873)
chain: MFWKFDLHSSSHIDTLLEREDVTLKELMDEEDVLQECKAQNRKLIEFLLKAECLEDLVSFIIEEPPQDMDEKIRYKYPNISCELLTSDVSQMNDRLGEDESLLMKLYSFLLNDSPLNPLLASFFSKVLSILISRKPEQIVDFLKKKHDFVDLIIKHIGTSAIMDLLLRLLTCIEPPQPRQDVLNWLNEEKIIQRLVEIVHPSQEEDRHSNASQSLCEIVRLSRDQMLQIQNSTEPDPLLATLEKQEIIEQLLSNIFHKEKNESAIVSAIQILLTLLETRRPTFEGHIEICPPGMSHSACSVNKSVLEAIRGRLGSFHELLLEPPKKSVMKTTWGVLDPPVGNTRLNVIRLISSLLQTNTSSINGDLMELNSIGVILNMFFKYTWNNFLHTQVEICIALILASPFENTENATITDQDSTGDNLLLKHLFQKCQLIERILEAWEMNEKKQAEGGRRHGYMGHLTRIANCIVHSTDKGPNSALVQQLIKDLPDEVRERWETFCTSSLGETNKRNTVDLVTTCHIHSSSDDEIDFKETGFSQDSSLQQAFSDYQMQQMTSNFIDQFGFNDEKFADQDDIGNVSFDRVSDINFTLNTNESGNIALFEACCKERIQQFDDGGSDEEDIWEEKHIAFTPESQRRSSSGSTDSEESTDSEEEDGAKQDLFEPSSANTEDKMEVDLSEPPNWSANFDVPMETTHGAPLDSVGSDVWSTEEPMPTKETGWASFSEFTSSLSTKDSLRSNSPVEMETSTEPMDPLTPSAAALAVQPEAAGSVAMEASSDGEEDAESTDKVTETVMNGGMKETLSLTVDAKTETAVFKSEEGKLSTSQDAACKDAEECPETAEAKCAAPRPPSSSPEQRTGQPSAPGDTSVNGPV
On to B2, for which the binding result is recorded as “binds”.

B3: Cancer/testis antigen family 45 member A5 (protein, UniProt P0DMU8 1-189)
chain: MTDKTEKVAVDPETVFKRPRECDSPSYQKRQRMALLARKQGAGDSLIAGSAMSKEKKLMTGHAIPPSQLDSQIDDFTGFSKDGMMQKPGSNAPVGGNVTSSFSGDDLECRETASSPKSQREINADIKRKLVKELRCVGQKYEKIFEMLEGVQGPTAVRKRFFESIIKEAARCMRRDFVKHLKKKLKRMI
On to B3, for which the binding entry is “binds”.

B4: Isoform 2 of Cdc42 effector protein 1 (protein, UniProt Q00587-2 1-384)
chain: MPGPQGGRGAATMSLGKLSPVGWVSSSQGKRRLTADMISHPLGDFRHTMHVGRGGDVFGDTSFLSNHGGSSGSTHRSPRSFLAKKLQLVRRVGAPPRRMASPPAPSPAPPAISPIIKNAISLPQLNQAAYDSLVVGKLSFDSSPTSSTDGHSSYGLDSGFCTISRLPRSEKPHDRDRDGSFPSEPGLRRSDSLLSFRLDLDLGPSLLSELLGVMSLPEAPAAETPAPAANPPAPTANPTGPAANPPATTANPPAPAATPTGPAANPPAPAASSTPHGHCPNGVTAGLGPVAEVKSSPVGGGPRGPAGPALGRHWGAGWDGGHHYPEMDARQERVEVLPQARASWESLDEEWRAPQAGSRTPVPSTVQANTFEFADAEEDDEVKV
In the case of B4, the binding result is recorded as “binds”.

B5: A-kinase anchor protein 8-like (protein, UniProt Q9ULX6 1-646)
chain: MSYTGFVQGSETTLQSTYSDTSAQPTCDYGYGTWNSGTNRGYEGYGYGYGYGQDNTTNYGYGMATSHSWEMPSSDTNANTSASGSASADSVLSRINQRLDMVPHLETDMMQGGVYGSGGERYDSYESCDSRAVLSERDLYRSGYDYSELDPEMEMAYEGQYDAYRDQFRMRGNDTFGPRAQGWARDARSGRPMASGYGRMWEDPMGARGQCMSGASRLPSLFSQNIIPEYGMFQGMRGGGAFPGGSRFGFGFGNGMKQMRRTWKTWTTADFRTKKKKRKQGGSPDEPDSKATRTDCSDNSDSDNDEGTEGEATEGLEGTEAVEKGSRVDGEDEEGKEDGREEGKEDPEKGALTTQDENGQTKRKLQAGKKSQDKQKKRQRDRMVERIQFVCSLCKYRTFYEDEMASHLDSKFHKEHFKYVGTKLPKQTADFLQEYVTNKTKKTEELRKTVEDLDGLIQQIYRDQDLTQEIAMEHFVKKVEAAHCAACDLFIPMQFGIIQKHLKTMDHNRNRRLMMEQSKKSSLMVARSILNNKLISKKLERYLKGENPFTDSPEEEKEQEEAEGGALDEGAQGEAAGISEGAEGVPAQPPVPPEPAPGAVSPPPPPPPEEEEEGAVPLLGGALQRQIRGIPGLDVEDDEEGGGGAP
Turning to B5, the binding result is reported as “binds”.

B6: DnaJ homolog subfamily C member 7 (protein, UniProt Q99615 1-494)
chain: MAAAAECDVVMAATEPELLDDQEAKREAETFKEQGNAYYAKKDYNEAYNYYTKAIDMCPKNASYYGNRAATLMMLGRFREALGDAQQSVRLDDSFVRGHLREGKCHLSLGNAMAACRSFQRALELDHKNAQAQQEFKNANAVMEYEKIAETDFEKRDFRKVVFCMDRALEFAPACHRFKILKAECLAMLGRYPEAQSVASDILRMDSTNADALYVRGLCLYYEDCIEKAVQFFVQALRMAPDHEKACIACRNAKALKAKKEDGNKAFKEGNYKLAYELYTEALGIDPNNIKTNAKLYCNRGTVNSKLRKLDDAIEDCTNAVKLDDTYIKAYLRRAQCYMDTEQYEEAVRDYEKVYQTEKTKEHKQLLKNAQLELKKSKRKDYYKILGVDKNASEDEIKKAYRKRALMHHPDRHSGASAEVQKEEEKKFKEVGEAFTILSDPKKKTRYDSGQDLDEEGMNMGDFDPNNIFKAFFGGPGGFSFEASGPGNFFFQFG
Turning to B6, the binding entry was “binds”.

B7: Immunoglobulin-binding protein 1 (protein, UniProt P78318 1-339)
chain: MAAEDELQLPRLPELFETGRQLLDEVEVATEPAGSRIVQEKVFKGLDLLEKAAEMLSQLDLFSRNEDLEEIASTDLKYLLVPAFQGALTMKQVNPSKRLDHLQRAREHFINYLTQCHCYHVAEFELPKTMNNSAENHTANSSMAYPSLVAMASQRQAKIQRYKQKKELEHRLSAMKSAVESGQADDERVREYYLLHLQRWIDISLEEIESIDQEIKILRERDSSREASTSNSSRQERPPVKPFILTRNMAQAKVFGAGYPSLPTMTVSDWYEQHRKYGALPDQGIAKAAPEEFRKAAQQQEEQEEKEEEDDEQTLHRAREWDDWKDTHPRGYGNRQNMG
On to B7, for which the binding result is on record as “binds”.
